According to patent US20220259324A1 (MINERVA BIOTECHNOLOGIES, published 2022):
These are yes or no findings as the source states them, for the method shown. For part of these data: Binding seen in cells or lysates may run through a third protein. Some binding calls cover weakened binding; strength is not graded here.

Sequences of proteins named here, by UniProt entry; tags and fusion partners are left off. A change or cut given only in a name is not applied to a line headed by its entry.
UniProt P15941: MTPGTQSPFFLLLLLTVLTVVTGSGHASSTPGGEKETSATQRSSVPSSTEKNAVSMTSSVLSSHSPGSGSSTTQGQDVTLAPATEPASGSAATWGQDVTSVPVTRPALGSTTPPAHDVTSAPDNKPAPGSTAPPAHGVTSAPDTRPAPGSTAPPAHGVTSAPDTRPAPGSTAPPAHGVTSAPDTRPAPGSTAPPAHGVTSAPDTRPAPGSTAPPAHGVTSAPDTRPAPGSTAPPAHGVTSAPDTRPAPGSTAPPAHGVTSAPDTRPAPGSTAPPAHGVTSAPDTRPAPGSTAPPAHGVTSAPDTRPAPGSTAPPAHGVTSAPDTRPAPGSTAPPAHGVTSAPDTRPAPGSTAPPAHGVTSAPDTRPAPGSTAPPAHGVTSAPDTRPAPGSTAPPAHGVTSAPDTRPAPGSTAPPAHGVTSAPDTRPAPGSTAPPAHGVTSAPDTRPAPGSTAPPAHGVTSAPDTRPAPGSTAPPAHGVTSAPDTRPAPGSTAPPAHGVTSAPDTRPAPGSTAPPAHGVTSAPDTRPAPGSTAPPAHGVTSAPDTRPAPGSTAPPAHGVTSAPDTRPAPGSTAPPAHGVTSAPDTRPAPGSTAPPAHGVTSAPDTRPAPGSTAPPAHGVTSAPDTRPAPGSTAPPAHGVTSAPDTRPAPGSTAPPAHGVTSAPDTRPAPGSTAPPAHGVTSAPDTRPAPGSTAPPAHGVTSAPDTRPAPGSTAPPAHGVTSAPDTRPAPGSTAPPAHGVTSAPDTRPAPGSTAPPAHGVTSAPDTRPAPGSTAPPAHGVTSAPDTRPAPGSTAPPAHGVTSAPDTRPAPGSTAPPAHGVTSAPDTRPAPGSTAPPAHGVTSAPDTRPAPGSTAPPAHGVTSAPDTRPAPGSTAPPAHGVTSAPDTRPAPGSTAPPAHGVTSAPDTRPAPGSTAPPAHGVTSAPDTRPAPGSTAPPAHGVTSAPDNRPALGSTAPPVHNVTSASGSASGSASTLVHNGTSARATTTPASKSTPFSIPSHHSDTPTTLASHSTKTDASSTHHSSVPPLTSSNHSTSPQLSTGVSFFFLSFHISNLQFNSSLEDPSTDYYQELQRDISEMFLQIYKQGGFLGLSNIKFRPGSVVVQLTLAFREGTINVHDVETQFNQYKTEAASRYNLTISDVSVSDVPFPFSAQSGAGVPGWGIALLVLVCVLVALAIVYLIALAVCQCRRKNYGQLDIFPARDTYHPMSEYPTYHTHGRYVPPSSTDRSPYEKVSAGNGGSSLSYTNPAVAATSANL
UniProt Q9Y5B8: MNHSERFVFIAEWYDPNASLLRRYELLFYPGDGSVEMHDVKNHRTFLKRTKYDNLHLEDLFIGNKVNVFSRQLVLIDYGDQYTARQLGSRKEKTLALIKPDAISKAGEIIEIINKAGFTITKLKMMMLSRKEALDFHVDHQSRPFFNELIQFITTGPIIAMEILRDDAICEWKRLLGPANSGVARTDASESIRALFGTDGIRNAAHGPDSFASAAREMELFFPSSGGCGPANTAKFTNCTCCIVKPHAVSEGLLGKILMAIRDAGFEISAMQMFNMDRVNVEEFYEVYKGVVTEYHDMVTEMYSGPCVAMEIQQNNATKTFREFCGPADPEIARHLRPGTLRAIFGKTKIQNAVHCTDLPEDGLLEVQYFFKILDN

Assays:
[1] = biological target: MUC1* growth factor receptor (cleaved MUC1 of cells) (human) (UniProt P15941); experiment: pull-down assays, ELISAs and nanoparticle binding experiments
[2] = biological target: MUC1* growth factor receptor (cleaved MUC1 of cells) (human) (UniProt P15941); experiment: cited to FIG. 1 (sandwich ELISA)

Row | binding [1] | binding [2] | Substance
1 | binds | binds | Human NME7-AB, also known as NME7AB (recombinant, devoid of the DM10 domain) (from UniProt Q9Y5B8 92-376) (ligand)
2 | binds |  | full-length human NME7 (42 kDa) (from UniProt Q9Y5B8 1-376) (ligand)
